For 2 substances, binding results are on record in PMC9576622.

Protein sequences, listed by entry. Tags and fused reporters are not part of them.
UniProt P30051: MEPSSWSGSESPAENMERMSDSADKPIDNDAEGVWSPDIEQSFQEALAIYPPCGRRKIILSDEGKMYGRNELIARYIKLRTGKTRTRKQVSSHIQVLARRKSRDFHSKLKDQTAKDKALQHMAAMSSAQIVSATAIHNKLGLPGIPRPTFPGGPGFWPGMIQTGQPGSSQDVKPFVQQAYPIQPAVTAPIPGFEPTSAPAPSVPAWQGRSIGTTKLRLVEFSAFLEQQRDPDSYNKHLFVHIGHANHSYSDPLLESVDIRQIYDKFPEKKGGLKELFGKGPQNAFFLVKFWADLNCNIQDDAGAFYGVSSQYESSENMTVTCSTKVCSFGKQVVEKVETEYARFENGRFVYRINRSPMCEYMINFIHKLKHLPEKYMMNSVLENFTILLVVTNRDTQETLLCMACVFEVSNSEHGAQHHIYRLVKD
UniProt P46938: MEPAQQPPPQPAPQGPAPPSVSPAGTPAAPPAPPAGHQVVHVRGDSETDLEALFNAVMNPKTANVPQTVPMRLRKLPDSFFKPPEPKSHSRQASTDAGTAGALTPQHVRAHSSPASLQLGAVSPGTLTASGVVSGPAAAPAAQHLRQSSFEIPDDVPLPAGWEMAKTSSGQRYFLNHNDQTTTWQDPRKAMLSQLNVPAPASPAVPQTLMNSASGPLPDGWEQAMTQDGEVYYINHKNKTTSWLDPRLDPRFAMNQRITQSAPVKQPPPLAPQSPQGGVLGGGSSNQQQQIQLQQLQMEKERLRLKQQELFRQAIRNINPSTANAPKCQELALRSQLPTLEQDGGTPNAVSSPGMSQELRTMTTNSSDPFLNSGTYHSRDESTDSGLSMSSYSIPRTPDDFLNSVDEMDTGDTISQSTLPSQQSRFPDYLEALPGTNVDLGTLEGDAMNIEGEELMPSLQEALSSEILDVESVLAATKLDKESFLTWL

One experiment deals with Tead1-Flag (UniProt P30051). Nature of the experiment: co-IP; 293T cells co-transfected with Tead1-Flag and Yap1-HA, 48 h; Anti-Flag or Anti-HA magnetic beads overnight, three washes; with or without verteporfin.
For experiment [1], the target named is TEAD1, endogenous (mouse (endogenous in primary cultured cardiomyocytes)) (UniProt P30051). Nature of the experiment: co-IP; endogenous proteins; cells transfected with siNC or siVgll4, cultured 48 h; lysate incubated with Tead1 antibody and Dynabeads protein G overnight, three washes, eluted with 1X SDS loading buffer.

These are yes or no findings as the source states them, for the method shown. In cells and extracts the contact can be indirect. Some binding calls cover weakened binding; strength is not graded here.

Yap1-HA (from UniProt P46938 1-488): the binding result with Tead1-Flag is “binds”.
Regarding “Yes-associated protein 1 (YAP1), endogenous (from UniProt P46938 1-488)”, in experiment [1], the binding entry is listed as “binds”.
